No constants are given. Whether binding was seen depends on the method and setting. Some entries that bind do so weakly or less than the wild type. Sequences can lack the tags named with a protein. One block for each molecule: values may come before it.
Target: T1, ALFA-Lcb2 (N-terminally ALFA-tagged Lcb2) (yeast) (UniProt P40970)
T1 sequence: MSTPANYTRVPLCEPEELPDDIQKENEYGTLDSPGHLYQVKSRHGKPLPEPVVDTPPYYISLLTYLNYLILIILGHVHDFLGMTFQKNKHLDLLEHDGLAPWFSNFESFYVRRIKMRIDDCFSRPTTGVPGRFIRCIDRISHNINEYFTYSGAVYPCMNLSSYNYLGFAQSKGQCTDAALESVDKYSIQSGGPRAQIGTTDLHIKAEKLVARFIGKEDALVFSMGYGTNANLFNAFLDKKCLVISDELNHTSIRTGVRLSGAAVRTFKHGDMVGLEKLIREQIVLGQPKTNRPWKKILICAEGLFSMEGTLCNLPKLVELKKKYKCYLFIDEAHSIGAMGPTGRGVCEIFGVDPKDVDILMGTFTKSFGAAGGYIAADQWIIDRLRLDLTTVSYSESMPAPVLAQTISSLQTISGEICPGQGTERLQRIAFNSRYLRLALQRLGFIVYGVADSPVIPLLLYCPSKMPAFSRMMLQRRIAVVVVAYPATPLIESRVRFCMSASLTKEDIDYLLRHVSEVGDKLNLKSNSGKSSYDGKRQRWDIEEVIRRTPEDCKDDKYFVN
Test: co-recruitment by nanobody re-localisation

The chains behind the UniProt entries cited, without tags or fusion partners.
UniProt P53224: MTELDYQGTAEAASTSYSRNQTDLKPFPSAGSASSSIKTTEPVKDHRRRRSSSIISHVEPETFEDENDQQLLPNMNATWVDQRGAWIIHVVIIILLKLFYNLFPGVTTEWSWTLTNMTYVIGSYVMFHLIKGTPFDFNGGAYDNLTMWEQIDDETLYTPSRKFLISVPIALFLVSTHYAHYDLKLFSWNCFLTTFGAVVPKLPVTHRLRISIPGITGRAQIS

binding: binds
Molecule: GFP-Orm1 (from UniProt P53224 1-222)

binding: binds
B1: GFP-Orm2 (protein, UniProt Q06144 1-216)
chain: MIDRTKNESPAFEESPLTPNVSNLKPFPSQSNKISTPVTDHRRRRSSSVISHVEQETFEDENDQQMLPNMNATWVDQRGAWLIHIVVIVLLRLFYSLFGSTPKWTWTLTNMTYIIGFYIMFHLVKGTPFDFNGGAYDNLTMWEQINDETLYTPTRKFLLIVPIVLFLISNQYYRNDMTLFLSNLAVTVLIGVVPKLGITHRLRISIPGITGRAQIS

binding: binds
B2: Lcb1-GFP (protein, UniProt P25045 1-558)
chain: MAHIPEVLPKSIPIPAFIVTTSSYLWYYFNLVLTQIPGGQFIVSYIKKSHHDDPYRTTVEIGLILYGIIYYLSKPQQKKSLQAQKPNLSPQEIDALIEDWEPEPLVDPSATDEQSWRVAKTPVTMEMPIQNHITITRNNLQEKYTNVFNLASNNFLQLSATEPVKEVVKTTIKNYGVGACGPAGFYGNQDVHYTLEYDLAQFFGTQGSVLYGQDFCAAPSVLPAFTKRGDVIVADDQVSLPVQNALQLSRSTVYYFNHNDMNSLECLLNELTEQEKLEKLPAIPRKFIVTEGIFHNSGDLAPLPELTKLKNKYKFRLFVDETFSIGVLGATGRGLSEHFNMDRATAIDITVGSMATALGSTGGFVLGDSVMCLHQRIGSNAYCFSACLPAYTVTSVSKVLKLMDSNNDAVQTLQKLSKSLHDSFASDDSLRSYVIVTSSPVSAVLHLQLTPAYRSRKFGYTCEQLFETMSALQKKSQTNKFIEPYEEEEKFLQSIVDHALINYNVLITRNTIVLKQETLPIVPSLKICCNAAMSPEELKNACESVKQSILACCQESNK

Reference: paper doi:10.1101/2023.03.29.534722
